# Data as given in the supplement of paper PMC12067093, “Discovery and optimisation of a covalent ligand for TRIM25 and its application to targeted protein ubiquitination” (Chemical Science, 2025).
# This is one part of the list.
# Compound: CC1Cc2ccccc2N1C(=O)C1CCCN(C1)C(=O)CCl (mixture of isomers) [TRIM25 ligand 11 (diastereomer mixture)]
# Experiment: probe-labelled cysteine peptide fold change vs DMSO (competition) (log2 fold change); higher = less target engagement (more negative = stronger competition)
# Conditions: 10 µM; THP-1; incubation time: 4 h
# 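Also: competitive chemoproteomic profiling in live THP-1 cells with an iodoacetamide desthiobiotin (IA-DTB) probe, comparing probe-labelled peptide intensities in compound-treated cells against DMSO-treated controls.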
row,Target,probe-labelled cysteine peptide fold change
1,PTPN3_P26045_206_QSEAESCYINIAR (UniProt P26045),0.0614
2,PTPRS_Q13332_107_DENVYECVAQNSVGEITVHAK (UniProt Q13332),0.541
3,PSMD1_Q99460_898_VLTMPETCR (UniProt Q99460),-0.126
4,PSMC3_P17980_387+396_CTDDFNGAQCK (UniProt P17980),-0.23
5,PSMD1_Q99460_659+660_YGAAMALGICCAGTGNK (UniProt Q99460),0.198
6,PSME4_Q14997_1267_EWESSCFVEK (UniProt Q14997),-0.0479
7,PSMC6_P62333_170_GCLLYGPPGTGK (UniProt P62333),-0.0424
8,PTK2B_Q14289_180_VSEGMALQLGCLELR (UniProt Q14289),-0.0405
9,PSMA4_P25789_163_ATCIGNNSAAAVSMLK (UniProt P25789),-0.152
10,PTPRF_P10586_1891_TQRPAMVQTEDQYQLCYR (UniProt P10586),0.0146
11,PTER_Q96BW5_289_LLVEEGCEDR (UniProt Q96BW5),0.0883
12,PTPRC_P08575_367_CDSEILYNNHK (UniProt P08575),0.0662
13,PTPN1_P18031_121_CAQYWPQK (UniProt P18031),-0.0476
14,PTPRC_P08575_853_RVNAFSNFFSGPIVVHCSAGVGR (UniProt P08575),-0.0131
15,PTPRE_P23469_630_QQQQTGNHPITVHCSAGAGR (UniProt P23469),0.281
16,PSMD2_Q13200_139_RFAADIISVLAMTMSGERECLK (UniProt Q13200),-0.22
17,PSTPIP2_Q9H939_65_KKPCGQSEINTLK (UniProt Q9H939),-0.0693
18,PSMD10_O75832_107_GAQVNAVNQNGCTPLHYAASK (UniProt O75832),0.0308
19,PSMF1_Q92530_17_AGLEVLFASAAPAITCR (UniProt Q92530),-0.162

row,Target,probe-labelled cysteine peptide fold change
1,PTK2B_Q14289_352_TSSLAEAENMADLIDGYCR (UniProt Q14289),-0.0364
2,PTPN12_Q05209_724_CDHPAGGIHYEMCIECPPTFSDK (UniProt Q05209),0.242
3,PTPN7_P35236_324_GEVDILGIVCQLR (UniProt P35236),-0.0582
4,PTPRF_P10586_615_VMCVSMGSTTVR (UniProt P10586),-0.0441
5,PSMA6_P60900_47_DCAVIVTQK (UniProt P60900),0.061
6,PSMD2_Q13200_616_VQQLLHICSEHFDSK (UniProt Q13200),0.236
7,PSMA5_P28066_165_GPQLFHMDPSGTFVQCDAR (UniProt P28066),0.149
8,PSMA2_P25787_213_ESFEGQMTEDNIEVGICNEAGFR (UniProt P25787),0.0692
9,PSMD9_O00233_59_GIGMNEPLVDCEGYPR (UniProt O00233),-0.158
10,PTPN1_P18031_231_SGTFCLADTCLLLMDK (UniProt P18031),0.0706
11,PTPN23_Q9H3S7_65_DFEGCSVLR (UniProt Q9H3S7),-0.0994
12,PTBP3_O95758_500_NLFIEAGCSVK (UniProt O95758),0.0521
13,PTPN11_Q06124_318_CNNSKPK (UniProt Q06124),-0.259
14,PTK2B_Q14289_395_SHLSESCSIESDIYAEIPDETLR (UniProt Q14289),0.156
15,PTPMT1_Q8WUK0_81_FLCNSSQEWK (UniProt Q8WUK0),0.225
16,PSME4_Q14997_459_TYPALETLTEPHQLTATLSCVIGVAR (UniProt Q14997),0.00101
17,PTPN12_Q05209_235_YQEHEDVPICIHCSAGCGR (UniProt Q05209),0.28
18,PSMC1_P62191_148_DLLEPGCSVLLNHK (UniProt P62191),0.0214
19,PTPN23_Q9H3S7_116_SVAHEDIKYEQACILYNLGALHSMLGAMDKR (UniProt Q9H3S7),-0.115

# Same assay, conditions: 50 µM; THP-1; incubation time: 4 h
row,Target,probe-labelled cysteine peptide fold change
1,PTPN3_P26045_206_QSEAESCYINIAR (UniProt P26045),0.0775
2,PTPRS_Q13332_107_DENVYECVAQNSVGEITVHAK (UniProt Q13332),0.334
3,PSMD1_Q99460_898_VLTMPETCR (UniProt Q99460),0.0341
4,PSMC3_P17980_387+396_CTDDFNGAQCK (UniProt P17980),0.0805
5,PSMD1_Q99460_659+660_YGAAMALGICCAGTGNK (UniProt Q99460),0.149
6,PSME4_Q14997_1267_EWESSCFVEK (UniProt Q14997),0.064
7,PSMC6_P62333_170_GCLLYGPPGTGK (UniProt P62333),0.00274
8,PTK2B_Q14289_180_VSEGMALQLGCLELR (UniProt Q14289),0.1
9,PSMA4_P25789_163_ATCIGNNSAAAVSMLK (UniProt P25789),-0.0405
10,PTPRF_P10586_1891_TQRPAMVQTEDQYQLCYR (UniProt P10586),-0.112
11,PTER_Q96BW5_289_LLVEEGCEDR (UniProt Q96BW5),-0.0182
12,PTPRC_P08575_367_CDSEILYNNHK (UniProt P08575),-0.00564
13,PTPN1_P18031_121_CAQYWPQK (UniProt P18031),-0.0308
14,PTPRC_P08575_853_RVNAFSNFFSGPIVVHCSAGVGR (UniProt P08575),0.0781
15,PTPRE_P23469_630_QQQQTGNHPITVHCSAGAGR (UniProt P23469),0.0723
16,PSMD2_Q13200_139_RFAADIISVLAMTMSGERECLK (UniProt Q13200),-0.194
17,PSTPIP2_Q9H939_65_KKPCGQSEINTLK (UniProt Q9H939),-0.125
18,PSMD10_O75832_107_GAQVNAVNQNGCTPLHYAASK (UniProt O75832),0.105
19,PSMF1_Q92530_17_AGLEVLFASAAPAITCR (UniProt Q92530),-0.234

row,Target,probe-labelled cysteine peptide fold change
1,PTK2B_Q14289_352_TSSLAEAENMADLIDGYCR (UniProt Q14289),0.189
2,PTPN12_Q05209_724_CDHPAGGIHYEMCIECPPTFSDK (UniProt Q05209),-0.0675
3,PTPN7_P35236_324_GEVDILGIVCQLR (UniProt P35236),0.0233
4,PTPRF_P10586_615_VMCVSMGSTTVR (UniProt P10586),0.0964
5,PSMA6_P60900_47_DCAVIVTQK (UniProt P60900),0.127
6,PSMD2_Q13200_616_VQQLLHICSEHFDSK (UniProt Q13200),0.16
7,PSMA5_P28066_165_GPQLFHMDPSGTFVQCDAR (UniProt P28066),-0.0584
8,PSMA2_P25787_213_ESFEGQMTEDNIEVGICNEAGFR (UniProt P25787),-0.0795
9,PSMD9_O00233_59_GIGMNEPLVDCEGYPR (UniProt O00233),-0.401
10,PTPN1_P18031_231_SGTFCLADTCLLLMDK (UniProt P18031),0.029
11,PTPN23_Q9H3S7_65_DFEGCSVLR (UniProt Q9H3S7),-0.0472
12,PTBP3_O95758_500_NLFIEAGCSVK (UniProt O95758),-0.000554
13,PTPN11_Q06124_318_CNNSKPK (UniProt Q06124),-0.379
14,PTK2B_Q14289_395_SHLSESCSIESDIYAEIPDETLR (UniProt Q14289),-0.413
15,PTPMT1_Q8WUK0_81_FLCNSSQEWK (UniProt Q8WUK0),0.115
16,PSME4_Q14997_459_TYPALETLTEPHQLTATLSCVIGVAR (UniProt Q14997),0.0556
17,PTPN12_Q05209_235_YQEHEDVPICIHCSAGCGR (UniProt Q05209),-0.07
18,PSMC1_P62191_148_DLLEPGCSVLLNHK (UniProt P62191),0.034
19,PTPN23_Q9H3S7_116_SVAHEDIKYEQACILYNLGALHSMLGAMDKR (UniProt Q9H3S7),-0.138
